Paper doi:10.1101/2025.10.24.684325
No constants are given. Whether binding was seen depends on the method and setting. Binding seen in cells or lysates may run through a third protein. These calls come from enrichment with a bait or labelling near it, and not all partners need be listed. Where a sequence is shown, tags or fusion partners need not be part of it.

Sequences of proteins named here, by UniProt entry; tags and fusion partners are left off.
UniProt P08752: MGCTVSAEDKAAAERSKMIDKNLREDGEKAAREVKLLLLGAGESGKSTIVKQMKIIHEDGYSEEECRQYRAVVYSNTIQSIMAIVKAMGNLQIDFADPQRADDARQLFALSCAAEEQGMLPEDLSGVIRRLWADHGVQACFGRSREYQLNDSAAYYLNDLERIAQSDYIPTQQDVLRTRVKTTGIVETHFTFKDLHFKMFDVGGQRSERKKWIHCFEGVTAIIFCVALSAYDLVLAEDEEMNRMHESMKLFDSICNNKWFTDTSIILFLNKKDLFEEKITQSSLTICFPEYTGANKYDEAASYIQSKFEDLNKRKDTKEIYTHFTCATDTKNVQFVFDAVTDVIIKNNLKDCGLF

T1: Flag-TMEM100 (transmembrane protein 100) (UniProt Q9CQG9)
T1 sequence: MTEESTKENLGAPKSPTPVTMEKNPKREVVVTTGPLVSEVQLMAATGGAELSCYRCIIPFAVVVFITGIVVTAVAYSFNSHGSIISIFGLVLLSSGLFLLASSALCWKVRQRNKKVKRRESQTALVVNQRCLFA


Target: T1, Flag-TMEM100 (transmembrane protein 100)
Assay: affinity purification with mass spectrometry

Molecule | binding
GNAI2 (from UniProt P08752 1-355) | binds
PRDX1 (protein, UniProt P35700 1-199) MSSGNAKIGYPAPNFKATAVMPDGQFKDISLSEYKGKYVVFFFYPLDFTFVCPTEIIAFSDRADEFKKLNCQVIGASVDSHFCHLAWINTPKKQGGLGPMNIPLISDPKRTIAQDYGVLKADEGISFRGLFIIDDKGILRQITINDLPVGRSVDEIIRLVQAFQFTDKHGEVCPAGWKPGSDTIKPDVNKSKEYFSKQK | binds
